The test system of this assay is MR49F. To be noted: Homo sapiens.

Activity calls are given as the source filed them. The rule behind the calls is not given here.

Among the data in ChEMBL document CHEMBL4411271, “New Generation of Selective Androgen Receptor Degraders: Our Initial Design, Synthesis, and Biological Evaluation of New Compounds with Enzalutamide-Resistant Prostate Cancer Activity” (J Med Chem, 2019) are TGI values, retold here.

As for `CNC(=O)c1ccc(N2C(=S)N(c3ccc(C#N)c(C(F)(F)F)c3)C(=O)C2(C)C)cc1F`, the TGI entry was “inactive”.
